# Primary screen of a compound library

Data taken from ChEMBL document CHEMBL3988442, “University of Dundee, Small-Polar-MMV Screening Library” (2021).

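Assay of Toxoplasma gondii numbers, read through their beta-galactosidase reporter with a colour substrate. Compounds at 50 µM. Higher reads as fewer parasites (inferred from which compounds were picked for retests). Size under these conditions: about 18,000 compounds, about 170 of them at 50% or above in at least one test.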

Results are given as percent effect. How 0% and 100% were set is not recorded. Most values in the screen are low, and negative values occur. This is an unselected part of the compounds tested.

| compound | effect |
|---|---|
| `COC(=O)NC(C)C(=O)NCCc1nccn1C` (stereo not shown) | -2.795 |
| `O=C(Nc1ccc(O)nn1)c1ccc(F)cn1` | -3.39 |
| `CCC(C(=O)NCCCc1ccco1)n1cccn1` (stereo not shown) | -13.06 |
| `CN(CC(=O)N1CCOCC1)c1nc(C(C)(C)C)ns1` | -6.689 |
| `OCc1ccncc1NCc1coc2ccccc12` | -0.487 |
| `COC(=O)CCN1CCN(CC2CCCC2)C(=O)C1` | -4.204 |
| `CN(CCO)c1ccc(C(F)(F)F)cn1` | -5.403 |
| `CCc1cccc2c1N(C(=O)CNC)CC2` | 14.19 |
| `CCOc1ccccc1NC(=O)CSc1c[nH]nn1` | 0.9326 |
| `O=C(Nc1ccc(-n2nccn2)cc1)N1CCC(O)C1` (stereo not shown) | -2.451 |
| `NCC1CSc2ccccc2O1` (stereo not shown) | -12.86 |
| `CN1CCC(N(C)C(=O)C2CCCC2)CC1` | 2.356 |
| `Cn1ccc(NC(=O)c2ccccc2)n1` | 9.312 |
| `O=C(NCC(F)(F)F)C1CCCN(Cc2ccon2)C1` (stereo not shown) | 7.935 |
| `CN(C)S(=O)(=O)NC1(C)CCc2ccccc2C1` (stereo not shown) | 23.36 |
| `O=C(Cn1cnnn1)N(CC(F)(F)F)C1CCC1` | -6.697 |
| `NS(=O)(=O)c1ccc(NC(=O)Oc2ccccc2)cc1` | -0.4673 |
| `COc1ccc(C2NC(=O)c3cccnc3N2)cc1F` (stereo not shown) | 6.983 |
| `CCc1nc(COC)cc(=O)[nH]1` | -2.593 |
| `COCCC(=O)NCc1ccccc1CN(C)C` | -1.717 |
| `CS(=O)(=O)CCOCCNC1CCCc2occc21` (stereo not shown) | -0.5841 |
| `CC(C)c1noc(CCC(=O)NC2CC2)n1` | 0.3483 |
| `COC(=O)CCN1CCNC(=O)C1c1cccs1` (stereo not shown) | -1.577 |

The first 3 entries again:

compound	effect
COC(=O)NC(C)C(=O)NCCc1nccn1C (stereo not shown)	-2.795
O=C(Nc1ccc(O)nn1)c1ccc(F)cn1	-3.39
CCC(C(=O)NCCCc1ccco1)n1cccn1 (stereo not shown)	-13.06